PubChem BioAssay AID1259308 | NCATS | 2017
Assay: 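Genes whose loss raises luciferase production in HEK293 cells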 (primary screen). Cell system: human HEK293 embryonic kidney cells stably expressing firefly luciferase (HEK-CMV-Luc2-Hygro). Knock-down reagent: single siRNA against human genes, 0.8 pmol siRNA per well. Duration: 72 h. Read-out: 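Reporter luminescence and viable-cell signal on separate replicate plates, given as percent of non-targeting control and median/MAD z-scores, plus per-cell luciferase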. Scale: total luciferase, z-score and total luciferase, % of control: higher = more reporter protein produced. Hit rule: 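An siRNA counts as active if its total luciferase robust z-score exceeds 3; genes with two or more such siRNAs out of three were retested with fresh siRNAs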. Calls: active = raised luciferase; inactive = no rise.
In all, the deposit lists about 59,000 reagents; below is a part drawn at random. About 1,510 of all reagents (2.6%) count as active. 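Calls use total luciferase alone and ignore viability, so some active siRNAs may act by altering cell number.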 Reagents against one gene are numbered here. Further read-outs or replicates are left out here.

For IFNB1 (interferon beta 1) #1, the entry reads total luciferase, z-score 0.235; total luciferase, % of control 86.6; inactive.
Knock-down of IFNB1 (interferon beta 1) #2 came out at: total luciferase, z-score -0.305; total luciferase, % of control 75.8; inactive.
IFNB1 (interferon beta 1) #3 showed total luciferase, z-score -1.61; total luciferase, % of control 49.8; inactive.
EIF2B4 (eukaryotic translation initiation factor 2B subunit delta) #1 showed total luciferase, z-score 0.062; total luciferase, % of control 83.1; inactive.
With knock-down of EIF2B4 (eukaryotic translation initiation factor 2B subunit delta) #2 the results were total luciferase, z-score -1.8; total luciferase, % of control 46.1; inactive.
EIF2B4 (eukaryotic translation initiation factor 2B subunit delta) #3 gave total luciferase, z-score -1.27; total luciferase, % of control 56.7; inactive.
Depletion of SELPLG (selectin P ligand) #1 resulted in: total luciferase, z-score -1.12; total luciferase, % of control 59.7; inactive.
With knock-down of SELPLG (selectin P ligand) #2, the record shows total luciferase, z-score -1.51; total luciferase, % of control 51.9; inactive.
SELPLG (selectin P ligand) #3 gave total luciferase, z-score -1.48; total luciferase, % of control 52.5; inactive.
MGAT5B #1 showed total luciferase, z-score -0.182; total luciferase, % of control 78.3; inactive.
Against MGAT5B #2, the values are total luciferase, z-score 0.296; total luciferase, % of control 87.8; inactive.
Knock-down of MGAT5B #3 gave: total luciferase, z-score 0.00312; total luciferase, % of control 81.9; inactive.

2 entries from above, set out differently.
{"target gene":"EIF2B4 (eukaryotic translation initiation factor 2B subunit delta)","reagent no.":2,"total luciferase, z-score":-1.8,"total luciferase, % of control":46.1,"Outcome":"inactive"}
{"target gene":"EIF2B4 (eukaryotic translation initiation factor 2B subunit delta)","reagent no.":3,"total luciferase, z-score":-1.27,"total luciferase, % of control":56.7,"Outcome":"inactive"}
